Results on two molecules are retold here after paper PMC11365554.

Results are given in words; binding and its absence hold for the method and conditions named. In cells and extracts the contact can be indirect. A result given as binding can be weak or reduced; the word gives no strength. Sequences can lack the tags named with a protein.

The target in assay [1] is T1, Myc-tagged SUN5 (UniProt Q9DA32).
T1 sequence: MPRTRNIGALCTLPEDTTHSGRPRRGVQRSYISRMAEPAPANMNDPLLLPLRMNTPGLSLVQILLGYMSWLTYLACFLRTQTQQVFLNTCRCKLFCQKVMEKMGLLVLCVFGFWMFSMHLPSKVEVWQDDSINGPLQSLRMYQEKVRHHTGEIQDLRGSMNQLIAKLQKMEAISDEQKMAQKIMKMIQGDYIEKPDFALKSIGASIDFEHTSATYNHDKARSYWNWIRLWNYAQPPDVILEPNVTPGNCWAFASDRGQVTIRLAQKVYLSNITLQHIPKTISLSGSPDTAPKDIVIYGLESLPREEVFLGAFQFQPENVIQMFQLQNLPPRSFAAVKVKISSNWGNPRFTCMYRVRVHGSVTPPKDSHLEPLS
As to the kind of experiment: co-IP; tagged proteins co-expressed two at a time in HEK293T cells; precipitated by the tag of the bait.

In assay [2] the target is Flag-tagged CCDC188. The assay is described as above.

Consider Flag-tagged CCDC188, for which, in assay [1], the binding entry is given as “binds”.

B1: Myc-tagged PMFBP1 (protein, UniProt Q9WVQ0 1-1022)
chain: MLKLKGELRTAKGLKNEAGERDRDVSNLNSKLLSLQLDIKNLHDVCKRQGKTLQENQLCVEEAMLKANHNKKQAQTLVFTDNQMDFRVNKQYHLRQLQQLKKKLLTLQQELEFRTQELQASYCSLLQYQSILEKQTSDLLVLHRHCKLKEDEVILYEEEMGNHSKSTGEKLHLAQEQLALAGDKILSLERSLNLYRDKYQTSLSNIELLECQVKMLEGELSGLIGQDPENKGDHPKVRIYTSPCVIQEHQETLKRLSEVWQKVSEQDDLIQELRNKLACSNSLVLEREEALIKLQAEFASYTATHRHPPTSSEDCEDITKILKHLQEQKDSQCLHVEEYQNLVKDLRMELEAVSEQKKKIMKDMMKLELDLHGLREETSCVIEKKDKETVFLQYRLQDLQQQYTESQKLSLKKDKLLQDKDERLHELEKNLMQVQNSLREKEAELEKLQCTTKELDTSLQEARQSTSKIDCEALRAEIQKLKDSLEEAREQLKVSDQNLTQSKEEAHLSASSLEDAHRKIENCLLQDKQKEEVIKDLQSQLHKLQKESSKIEEERKHNRQRLQELSSELSEGQRRLSNAEKEKSLLQKTLDEDEKKIDELFHSTQVSEQKQRELTNSIRKLEEELLEIKGLLEEKREQLKKSKEQEKALEEEIEALRQEAKRKEKMAKEHLRKLDEEKENLQAELTSRSSHLDSSLNKYNSSQKVIQELNAEIARQKDSIMILQTQLDSAIQKEKNCFQNMVSKEAYEELVRKSGNCQDDLTQALEKLTQATSETKSLNRSLQQTQERKAQLEDEIAAYEERMKKLNMELKKLQGFQQQSEQEVHNFDKKLEEMSNQVLQWQRQHQSDLKMLAAKESQLREFQEEMATLRESLLADEKEPYSPPAKLTPKETCRHHRENDQIMNNVEQWAKEQKIANEKLGNKLREQVKYIAKLTGEKDHLHNVMVHLQQENKKLKNEIEEKKLKAGNPRICVKAFPPNKLEPSQKGKLCCALGWRGIPQDLTPKTDHKYMGLPHSSGSSYC
For B1, the binding result in assay [2] is recorded as “binds”.
